Data as given in PubChem BioAssay AID1671190 (National Center for Advancing Translational Sciences (NCATS), 2021).
The whole screen tested about 580,000 compounds, of which about 6,100 (1.1%) were called active. Not shown: some 15% with an inconclusive outcome. The call rests on the fitted dose curve; in most records, active means well fitted inhibition curve with a large enough effect; inconclusive means small, poorly fitted or top-dose-only effect, or another doubt; inactive means no such curve, though single readings can be large or run the other way. The list shows a part of the results, in another mix than the full data. Entries without a call were filed so in the source. More than one record can exist for a structure, and the calls need not agree.

By UniProt entry, the sequences of proteins in these tests, tags left out.
UniProt P18054, whole entry, looked up: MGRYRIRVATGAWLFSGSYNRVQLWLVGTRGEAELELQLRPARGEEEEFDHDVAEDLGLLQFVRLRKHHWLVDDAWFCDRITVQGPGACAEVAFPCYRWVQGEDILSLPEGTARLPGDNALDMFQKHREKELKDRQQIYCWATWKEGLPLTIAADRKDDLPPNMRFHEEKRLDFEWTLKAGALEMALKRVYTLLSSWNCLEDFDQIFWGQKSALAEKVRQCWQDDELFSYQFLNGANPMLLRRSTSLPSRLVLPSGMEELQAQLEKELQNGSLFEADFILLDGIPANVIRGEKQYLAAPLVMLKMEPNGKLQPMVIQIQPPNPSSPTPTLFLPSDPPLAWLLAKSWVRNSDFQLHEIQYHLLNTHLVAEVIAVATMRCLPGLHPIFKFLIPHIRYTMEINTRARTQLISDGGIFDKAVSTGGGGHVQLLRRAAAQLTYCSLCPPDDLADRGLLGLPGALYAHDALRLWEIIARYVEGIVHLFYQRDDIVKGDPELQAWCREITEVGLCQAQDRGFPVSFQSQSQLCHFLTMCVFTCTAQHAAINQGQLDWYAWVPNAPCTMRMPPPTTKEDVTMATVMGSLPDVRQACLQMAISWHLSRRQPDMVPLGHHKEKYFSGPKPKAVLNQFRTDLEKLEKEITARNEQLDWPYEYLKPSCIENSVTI

The compounds below were run against Polyunsaturated fatty acid lipoxygenase ALOX12 (Homo sapiens) (UniProt P18054) (assay: Primary qHTS assay for inhibitors of human arachidonate 12S-lipoxygenase (ALOX12): Round 2). Details: purified 12hLO, xylenol orange hydroperoxide absorbance; activity change, negative = inhibition: at 0.00344 µM (top of the series).
Method in brief: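 Purified human 12hLO (150 nM final) in 25 mM Hepes, 0.01% Triton X-100, pH 7.0 was preincubated 15 min at room temperature with compound. Then 40 uM arachidonic acid was added, 30 min. Hydroperoxide was read by Fe-XO absorbance ratio 573/405 nm.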
On the % scale 0 is the no-effect control and ±100 the full control effect; potency means the concentration at half of the fitted maximal effect.

SMILES | activity change, negative = inhibition [%] | Potency
CCN(CC)CCNC(=O)c1cc(Br)c(N)cc1OC | 12.5 | 
C#CC1(O)CC[C@H]2[C@@H]3CCC4=CCCC[C@@H]4[C@H]3CC[C@@]21C (stereo not given in full) | -13.4 | 
COCCCOc1ccnc(CS(=O)c2nc3ccccc3[nH]2)c1C (stereo not given) | -15 | 
CSCC[C@H](NC(=O)[C@H](Cc1c[nH]c2ccccc12)NC(=O)CCNC(=O)OC(C)(C)C)C(=O)N[C@@H](CC(=O)O)C(=O)N[C@@H](Cc1ccccc1)C(N)=O | -26.4 | 
CCOC(N)=O | -5.13 | 
CN1CCN2c3ccccc3Cc3ccccc3C2C1 (stereo not given) | 0.494 | 
CC1CCCCC12NC(=S)N(c1ccccc1)N2 (stereo not given) |  | active: 5.01 µM
CCCCc1ncc(/C=C(\Cc2cccs2)C(=O)O)n1Cc1ccc(C(=O)O)cc1 | 8.9 | 
O=C(O)CCC(=O)c1ccc(-c2ccccc2)cc1 | 16 | 
CC1(COc2ccc(CC3SC(=O)NC3=O)cc2)CCCCC1 (stereo not given) | 53.1 | 
CC(C)(C)NC[C@H](O)COc1cccc2c1CCCC2=O | -30.9 | 
Cc1ccc(Cn2cc(-c3ccncc3)cc2C(=O)NC2CC2)cc1 |  | active: 28.2 µM
O=C(O)C(c1c[nH]c2cc(Cl)ccc12)N1CCN(C(c2ccccc2)c2ccccc2)CC1 (stereo not given) |  | active: 7.94 µM
CCOC(=O)C1=C(C)NC(C)=C(C(=O)OC)C1c1cccc(Cl)c1Cl (stereo not given) | 0.908 | 
NNC(=O)c1ccncc1 | 11.1 | 
Cc1cc(O)c(C)c(C)c1O | 9.88 | 
CN(C)CC1CCC/C(=C/c2ccc(Cl)cc2)C1=O (stereo not given) |  | active: 35.5 µM
Cc1cccc(N(C)C(=S)Oc2ccc3ccccc3c2)c1 | 16.7 | 
CCCCCCCCCCCC(=O)[O][Sn]([CH2]CCC)([CH2]CCC)[O]C(=O)CCCCCCCCCCC | -1.39 | 
O=C(O)c1cc2ccc(Br)cc2[nH]1 |  | active: 17.8 µM
Cc1nn2c(c1-c1ccccc1-c1ccccc1)N(CCC(C)C)CCC2 |  | active: 39.8 µM
O=C1NC2(CCN(CC3CCCC3)CC2)Oc2ccccc21 |  | active: 25.1 µM

SMILES | activity change, negative = inhibition [%] | Potency
CN1CCCN=C1/C=C/c1cccs1 | 18.9 | 
CCOC(=O)Oc1ccc(CCNC(=O)[C@H](CCSC)NC(C)=O)cc1OC(=O)OCC | 52.4 | 
Cc1cccc(C)c1NC(=S)NC(C)CCc1ccccc1 (stereo not given) |  | active: 39.8 µM
Nc1nc(N)c2nc(-c3ccccc3)c(N)nc2n1 | 13.7 | 
CCCC(O)C(CC)CO (stereo not given) | 10.2 | 
COP(=O)(OC)OC(c1ccc(Cl)cc1)P(=O)(OC)OC (stereo not given) | -13.7 | 
CC(C)NCC(O)COc1cccc2[nH]ccc12 (stereo not given) | -12.4 | 
C=CCc1ccccc1OCC(O)CN1CCOCC1 (stereo not given) |  | active: 39.8 µM
CN(C)S(=O)(=O)c1cccc(-n2sc3ccccc3c2=O)c1 |  | active: 1.78 µM
CCCCCC=CCC=CCCCCCCCC(=O)OCC | -1.03 | 
O=C(Nc1nc(-c2ccc(Cl)cc2)cs1)NC1CCCCC1 |  | active: 50.1 µM
Cc1ccc(S(=O)(=O)N2CCN(C(=O)c3cc4cc(C)ccc4nc3C)CC2)cc1 |  | active: 39.8 µM
CC(=O)OCC(=O)[C@@]1(O)CC[C@H]2[C@@H]3CCC4=CC(=O)C=C[C@]4(C)[C@H]3[C@@H](O)C[C@@]21C | 27.4 | 
Oc1c(Br)cc(Br)cc1CNc1cccc2cccnc12 |  | active: 14.1 µM
CCC(C(=O)NCc1ccc(C)cc1)c1ccccc1 (stereo not given) |  | active: 25.1 µM
Cc1c(Nc2ncccc2C(=O)O)cccc1C(F)(F)F | 14.8 | 
CC[C@H](c1ccc(O)cc1)[C@@H](CC)c1ccc(O)cc1 | 50.5 | 
CCC(=O)N1Cc2ccccc2CC2(CCN(CCc3ccc(C)cc3)CC2)C1 |  | active: 35.5 µM
O=C(O)c1cc(=O)c2c(OCC(O)COc3cccc4oc(C(=O)O)cc(=O)c34)cccc2o1 | 26.9 | 
C[C@H]1c2cccc(O)c2C(O)=C2C(=O)[C@]3(O)C(O)=C(C(N)=O)C(=O)[C@@H](N(C)C)[C@@H]3[C@@H](O)[C@@H]21 | -13.8 | 
Oc1c(Cl)cc(Cl)cc1Sc1cc(Cl)cc(Cl)c1O | -44.8 | 
C=CCc1ccccc1OCC(O)CNC(C)C (stereo not given) | 28.3 | 

SMILES | activity change, negative = inhibition [%] | Potency
CCCCOc1ccc(CC(=O)NO)cc1 | -10.8 | 
CC(=O)OC(C)C[N+](C)(C)C (stereo not given) | -5.16 | 
Cc1ccc(O)c([C@H](CCN(C(C)C)C(C)C)c2ccccc2)c1 | 12.9 | 
O=C(CN1CCN(Cc2ccc3c(c2)OCO3)CC1)N1c2ccccc2Sc2ccccc21 | 19.5 | active: 0.794 µM
O=C(/C=C/c1ccccc1)OCc1ccccc1 | -59.3 | 
CCOC(=O)C(=O)c1csc(NC=O)n1 | 6.16 | 
CN(C)CCC(c1ccccc1)c1ccccn1 (stereo not given) | -7.65 | 
O=C1NC(c2ccccc2)(c2ccccc2)C(=O)N1COP(=O)(O)O | 9.71 | 
NC(=O)c1cc(-c2csc(NCCc3ccccc3)n2)ccc1O |  | active: 31.6 µM
Cc1cc(-n2nc3ccc(Cl)cc3n2)c(O)c(C(C)(C)C)c1 | -27.5 | 
O=C(O)c1c(O)c(-c2ccccc2)nc2ccccc12 | -31.5 | 
CC[C@]1(O)C[C@@H]2CN(CCc3c([nH]c4ccccc34)[C@@](C(=O)OC)(c3cc4c(cc3OC)N(C)[C@H]3[C@@](O)(C(=O)OC)[C@H](OC(C)=O)[C@]5(CC)C=CCN6CC[C@]43[C@@H]65)C2)C1 | -1.8 | 
O=P(O)(O)C(O)(Cc1cccnc1)P(=O)(O)O | 52.9 | 
COc1ccc(-n2nc(CCC(=O)N(C)O)cc2-c2ccc(Cl)cc2)cc1 | -12.5 | 
CCC(c1cccs1)N1C(=O)[C@H]2CN(S(=O)(=O)c3cccc(Cl)c3)C[C@H]2C1=O (stereo not given in full) |  | active: 31.6 µM
CC(C)NC(=O)c1ccc(C=O)cc1 | -82 | 
CCCC(C(=O)OCCN(CC)CC)(c1ccccc1)c1ccccc1 | 2.32 | 
NC(=O)NO | -26.5 | 
Clc1ccccc1C(c1ccccc1)(c1ccccc1)n1ccnc1 | -7.78 | 
CNC1(C)C2CCC(C2)C1(C)C (stereo not given) | -5.87 | 
COc1ccc(Br)c2oc(S)cc(=O)c12 |  | active: 6.31 µM
COc1ccccc1-c1cncnc1Nc1ccccc1 |  | active: 39.8 µM

Exported in CSV form: entries from further up
SMILES,"activity change, negative = inhibition [%]",Potency
O=C(CN1CCN(Cc2ccc3c(c2)OCO3)CC1)N1c2ccccc2Sc2ccccc21,19.5,active: 0.794 µM
O=C1NC(c2ccccc2)(c2ccccc2)C(=O)N1COP(=O)(O)O,9.71,
O=C(O)c1c(O)c(-c2ccccc2)nc2ccccc12,-31.5,
O=P(O)(O)C(O)(Cc1cccnc1)P(=O)(O)O,52.9,
COc1ccc(-n2nc(CCC(=O)N(C)O)cc2-c2ccc(Cl)cc2)cc1,-12.5,
CC(C)NC(=O)c1ccc(C=O)cc1,-82,

Ordered by count of non-hydrogen atoms (smallest number first): 3 of the compounds above.
SMILES | activity change, negative = inhibition [%] | Potency
CNC1(C)C2CCC(C2)C1(C)C (stereo not given) | -5.87 | 
NC(=O)c1cc(-c2csc(NCCc3ccccc3)n2)ccc1O |  | active: 31.6 µM
CCCC(C(=O)OCCN(CC)CC)(c1ccccc1)c1ccccc1 | 2.32 | 

(more compounds)

SMILES | activity change, negative = inhibition [%] | Potency
O=C(O)CCc1nc2ccccc2[nH]1 | -1.79 | 
CCCc1nc(C)c2c(=O)[nH]c(-c3cc(S(=O)(=O)N4CCN(CC)CC4)ccc3OCC)nn12 | -28.7 | 
O=C(Cc1ccccc1)Nc1sc2c(c1C(=O)Nc1ccc(Cl)cc1)CCCC2 |  | active: 15.8 µM
CC(C)(Oc1ccc(C2CC2(Cl)Cl)cc1)C(=O)O (stereo not given) | -18.9 | 
O=C(O)COc1ccc2c(=O)c(Oc3ccc(Cl)cc3)coc2c1 |  | active: 12.6 µM
CCOC(=O)c1c(N)sc(N)c1C(=O)OCC |  | active: 50.1 µM
CN(CC1(C)CCCO1)S(=O)(=O)c1ccc(Cl)c(S(N)(=O)=O)c1 (stereo not given) | 8.4 | 
CC1CCN(CCCC(=O)c2ccc(F)cc2)CC1 | 23.9 | 
Nc1ccc(S(N)(=O)=O)cc1 | 2.72 | 
COc1ccc(-c2cn(-c3ccc(C)c(C)c3)c(=S)[nH]2)cc1OC |  | active: 28.2 µM
COc1ccc(S(=O)(=O)N2CCN(C(=O)C3COc4ccccc4O3)CC2)cc1 (stereo not given) |  | active: 39.8 µM
Cc1ccc(CCn2c3c(c4cc(Cl)ccc42)CN(C)CC3)cn1 | -31.5 | 
CSc1ccc(/C=C2/C(C)=C(CC(=O)O)c3cc(F)ccc32)cc1 | 14.1 | 
CCOC(=O)c1ccc(C#Cc2ccc3c(c2)C(C)(C)CCS3)nc1 | -9.1 | 
CCC(C)(C)c1ccc(CC(C)CN2C[C@@H](C)O[C@@H](C)C2)cc1 (stereo not given in full) | 11.5 | 
Nc1nc(N)nc(-c2cc(Cl)ccc2Cl)n1 | 5.9 | 
O=C(O)/C=C/c1cc(Br)c(-c2ccc(Cl)cc2Cl)o1 |  | active: 39.8 µM
Oc1ccc(C(O)CNCCCCCCNCC(O)c2ccc(O)c(O)c2)cc1O (stereo not given) | 23.4 | 
COc1ccc2[nH]c(S(=O)Cc3ncc(C)c(OC)c3C)nc2n1 (stereo not given) | 36.9 | 
CC(C)c1nc(CN(C)C(=O)N[C@H](C(=O)N[C@@H](Cc2ccccc2)C[C@H](O)[C@H](Cc2ccccc2)NC(=O)OCc2cncs2)C(C)C)cs1 | 7.49 | 
CCc1ccc(NC(=S)N(Cc2ccc(Cl)cc2)Cc2ccc(C(=O)O)cc2)cc1 |  | active: 39.8 µM
O=C(NCC1CCCCN1)c1cc(OCC(F)(F)F)ccc1OCC(F)(F)F (stereo not given) | -7.71 | 

SMILES | activity change, negative = inhibition [%] | Potency
CC1CCc2cc(F)cc3c(=O)c(C(=O)O)cn1c23 (stereo not given) | 31.8 | 
CC(/C=C1\SC(=S)N(NS(=O)(=O)c2ccc(C)cc2)C1=O)=C\c1ccccc1 |  | active: 15.8 µM
CCOc1ccc(NC(=O)c2nnn3c2COC(c2ccc(Cl)cc2)C3)cc1 (stereo not given) |  | active: 44.7 µM
CCOC(=O)C1=C(C)NC(C)=C(C(=O)OC)C1c1cccc([N+](=O)[O-])c1 (stereo not given) | -3.54 | 
COc1cc2c(c(OC)c1OC)-c1ccc(OC)c(=O)cc1[C@@H](NC(C)=O)CC2 | 25.6 | 
COc1ccc(/C=C2/CCn3c2nc2cc(Cl)ccc2c3=O)cc1O |  | active: 1.78 µM
CCCCCCCC(=O)[O-].CCCCCCCC(=O)[O-].[Zn+2] | 9.95 | 
S=c1[nH]cc2cnccn12 |  | active: 8.91 µM
CNC(=O)c1ccccc1Sc1ccc2c(/C=C/c3ccccn3)n[nH]c2c1 | -12.2 | 
CC(CN1c2ccccc2Sc2ccccc21)N(C)C (stereo not given) | 5.48 | 
N#CC(C#N)=C1NC(N)=C(C#N)C(c2ccccc2)=C1C#N |  | active: 6.31 µM
COc1ccc(/C(C)=C/C(=O)O)c(OC)c1 | -34.9 | 
Cc1ccc(C=Nc2ccc(Nc3ccccc3)cc2)s1 |  | active: 39.8 µM
CN(C)[C@@H](CCOc1cccc2ccccc12)c1ccccc1 | -8.65 | 
CCCC(CCC)C(=O)O | 21.8 | 
CC(C)[N+](C)(C)CC(O)COc1cccc2ccccc12 (stereo not given) | -4.89 | 
COc1cc(N)c(Cl)cc1C(=O)NC1CCN(CCCOc2ccc(F)cc2)CC1OC (stereo not given) | 1.35 | 
CNC(=O)c1c(I)c(NC(C)=O)c(I)c(C(=O)O)c1I | 5.45 | 
S=C(NCCCc1ccccc1)Nc1ccc(Cl)cc1 |  | active: 39.8 µM
Cn1c(=O)c2[nH]c(Br)nc2n(C)c1=O | 10.4 | 
CC(C)(C)NC(=O)[C@@H]1CN(Cc2cccnc2)CCN1C[C@@H](O)C[C@@H](Cc1ccccc1)C(=O)N[C@H]1c2ccccc2C[C@H]1O | -12.2 | 
